{
  "source": "patent US20230039109A1",
  "about": "(Novartis, published 2023)",
  "note": "Results are given in words; binding and its absence hold for the method and conditions named. Some binding calls cover weakened binding; strength is not graded here.",
  "data": [
    {"target": "Cynomolgus CD73/NT5E Protein (His Tag) (cynomolgus monkey)", "assay": "ForteBio Octet BLI", "values": [
      {"binder": "anti-CD73 antibody 350.C (antibody, V domains shown) VH: QVQLQESGPGLVKPSETLSLTCTVSGGSIERYYWSWIRQPPGKGLEWIGYIYGRGSTNYNPSLKSRVTISVDTSKNQFSLKLSSVTAADTAVYYCARESQESPYNNWFDPWGQGTLVTVSS VL: DIQMTQSPSSVSASVGDRVTITCRASQGISSWLAWYQQKPGKAPKLLIYAASSLQSGVPSRFSGSGSGTDFTLTISSLQPEDFATYYCQQGNSFPRTFGGGTKVEIK", "binding": "binds"},
      {"binder": "anti-CD73 antibody 356.C (antibody, V domains shown) VH: QVQLQESGPGLVKPSETLSLTCTVSGGSIEGRYWSWIRQPPGKGLEWIGYIYGSGSTKYNPSLKSRVTISVDTSKNQFSLKLSSVTAADTAVYYCARESQESPYNNWFDPWGQGTLVTVSS VL: DIQMTQSPSSVSASVGDRVTITCRASQGISSWLAWYQQKPGKAPKLLIYAASSLQSGVPSRFSGSGSGTDFTLTISSLQPEDFATYYCQQGNSFPRTFGGGTKVEIK", "binding": "binds"},
      {"binder": "anti-CD73 antibody 358.C (antibody, V domains shown) VH: QVQLQESGPGLVKPSETLSLTCTVSGGSISGRYWSWIRQPPGKGLEWIGYIYGTGSTNYNPSLKSRVTISVDTSKNQFSLKLSSVTAADTAVYYCARESQESPYNNWFDPWGQGTLVTVSS VL: DIQMTQSPSSVSASVGDRVTITCRASQGISSWLAWYQQKPGKAPKLLIYAASSLQSGVPSRFSGSGSGTDFTLTISSLQPEDFATYYCQQGNSFPRTFGGGTKVEIK", "binding": "binds"},
      {"binder": "anti-CD73 antibody 373.C (antibody, V domains shown) VH: EVQLLESGGGLVQPGGSLRLSCAASGFTFHRYAMSWVRQAPGKGLEWVSAISGSGMNTYYADSVKGRFTISRDNSKNTLYLQMNSLRAEDTAVYYCARGGLYGSGSYLSDFDLWGRGTLVTVSS VL: EIVLTQSPATLSVSPGERATLSCRASQSVGSNLAWYQQKPGQAPRLLIYGASTRATGIPARFSGSGSGTEFTLTISSLQSEDFAVYYCQQHNAFPYTFGGGTKVEIK", "binding": "binds"},
      {"binder": "anti-CD73 antibody 374.C (antibody, V domains shown) VH: EVQLLESGGGLVQPGGSLRLSCAASGFTFSYNAMSWVRQAPGKGLEWVSSISGTGGSTYYADSVKGRFTISRDNSKNTLYLQMNSLRAEDTAVYYCARGGLYGSGSYLSDFDLWGRGTLVTVSS VL: EIVLTQSPATLSVSPGERATLSCRASQSVGSNLAWYQQKPGQAPRLLIYGASTRATGIPARFSGSGSGTEFTLTISSLQSEDFAVYYCQQHNAFPYTFGGGTKVEIK", "binding": "binds"},
      {"binder": "anti-CD73 antibody 377.C (antibody, V domains shown) VH: EVQLLESGGGLVQPGGSLRLSCAASGFTFKSYAMSWVRQAPGKGLEWVSAISGSGSYTYYADSVKGRFTISRDNSKNTLYLQMNSLRAEDTAVYYCARGGLYGSGSYLSDFDLWGRGTLVTVSS VL: EIVLTQSPATLSVSPGERATLSCRASQSVGSNLAWYQQKPGQAPRLLIYGASTRATGIPARFSGSGSGTEFTLTISSLQSEDFAVYYCQQHNAFPYTFGGGTKVEIK", "binding": "binds"},
      {"binder": "anti-CD73 antibody 379.C (antibody, V domains shown) VH: EVQLLESGGGLVQPGGSLRLSCAASGFTFSRYAMSWVRQAPGKGLEWVSSISGTGGSTYYADSVKGRFTISRDNSKNTLYLQMNSLRAEDTAVYYCARGGLYGSGSYLSDFDLWGRGTLVTVSS VL: EIVLTQSPATLSVSPGERATLSCRASQSVGSNLAWYQQKPGQAPRLLIYGASTRATGIPARFSGSGSGTEFTLTISSLQSEDFAVYYCQQHNAFPYTFGGGTKVEIK", "binding": "binds"}
    ]}
  ]
}
